Experiment: general procedure: solution-phase peptide synthesis; succinimide active ester (oSu); isobutyl chloroformate / N-methylmorpholine mixe
Conditions: late stage modification step

“D-Lac-L-Ala-γ-D-Glu(α-OH)-(L)-Z-(D)-mesoDAP-(L)-GlyOH” gave a step yield of 94.7%.
